Some entries share one result that the patent states for a list of compounds.
Target: T1, α2,3(O)-sialyltransferase ST3GALI (Rattus norvegicus, UniProt Q6H8N0)
T1 construct: purchased Calbiochem
T1 sequence (Q6H8N0 1-340): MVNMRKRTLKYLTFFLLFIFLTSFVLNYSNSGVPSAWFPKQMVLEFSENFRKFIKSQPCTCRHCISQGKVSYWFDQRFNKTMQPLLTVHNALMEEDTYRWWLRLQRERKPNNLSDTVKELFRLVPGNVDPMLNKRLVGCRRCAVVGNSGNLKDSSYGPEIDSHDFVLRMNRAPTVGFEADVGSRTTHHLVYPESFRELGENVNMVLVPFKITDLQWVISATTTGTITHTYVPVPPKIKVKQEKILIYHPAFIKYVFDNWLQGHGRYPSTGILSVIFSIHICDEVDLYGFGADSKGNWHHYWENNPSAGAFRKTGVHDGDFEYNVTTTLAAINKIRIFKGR
Assay: Sialyltransferase inhibition assay, ST3GALI (reverse-phase HPLC)
Format: biochemical
Procedure: The enzymes analyzed in the present study included rat ST3Gal(I), rat ST3Gal(III), and human ST6Gal(I). Rat ST3Gal(I) and rat ST3Gal(Ill), were purchased from Calbiochem®, while human ST6Gal(I) was purchased from RnDSystems.com.
Sialyltransferase inhibition assay […] was performed as follows: Sialyltransferase activity was determined by measuring the level of the end product of sialylated saccharides with reverse-phase HPLC. The assay mixtures contained the following components: 200 mM MES buffer; 100 mM NaCl; 0.5 mM EDTA; 0.01% Triton X-100; 1.4 mU ST3GALI; 2.5 mM T-antigen; 1 mM CMP-Neu5Ac and different concentration of Sialyltransferase inhibitors to a total volume of 50 μl. The assay mixture was incubated at 37° C. for 15 mins and then quenched by heating up to 101′C for 10 mins. The sialylated product was resolved by reversed-phase HPLC. Kinetic data were obtained by fitting the initial rate data to the nonlinear regression equation.
Effects of the present compounds on the activity of sialyltransferase, including α2,3(N)-sialyltransferase ST3GALIII, α2,6(N)-sialyltransferases ST6GALI, and α2,3(O)-sialyltransferase ST3GALI, were determined in accordance with procedures described in the “Materials and Methods” section, and results are summarized in Table 1.

## C[C@H](CCC(=O)OCCN=[N+]=[N-])C1CC[C@H]2[C@@H]3CC[C@@H]4C[C@H](OC(=O)[C@H](CC(=O)O)Nc5ccc([N+](=O)[O-])c6nonc56)CC[C@]4(C)[C@H]3CC[C@]12C (stereo partly drawn) [Compound 1, (3S)-4-(((3R,5R,8R,9S,10S,13R,14S)-17-((R)-5-(2-azidoethoxy)-5-oxopentan-2-yl)-10,13-dimethylhexadecahydro-1H-cyclopenta[a]phenanthren-3-yl)oxy)-3-((7-nitrobenzo[c][1,2,5]oxadiazol-4-yl)amino)-4-oxobutanoic acid]
Measured at 500 μM, 500 µM
  ST3GALI inhibition percentage: none of the compounds 1-5 displayed inhibitory activity
Measured at 1 mM
  ST3GALI inhibition percentage: modest inhibitory activity

## C[C@H](CCC(=O)OCCOCCN=[N+]=[N-])C1CC[C@H]2[C@@H]3CC[C@@H]4C[C@H](OC(=O)[C@H](CC(=O)O)Nc5ccc([N+](=O)[O-])c6nonc56)CC[C@]4(C)[C@H]3CC[C@]12C (stereo partly drawn) [Compound 2, (3S)-4-(((3R,5R,8R,9S,10S,13R,14S)-17-((R)-5-(2-(2-azidoethoxy)ethoxy)-5-oxopentan-2-yl)-10,13-dimethylhexadecahydro-1H-cyclopenta[a]phenanthren-3-yl)oxy)-3-((7-nitrobenzo[c][1,2,5]oxadiazol-4-yl)amino)-4-oxobutanoic acid]
Measured at 500 μM
  ST3GALI inhibition percentage: none of the compounds 1-5 displayed inhibitory activity
Measured at 1 mM
  ST3GALI inhibition percentage: modest inhibitory activity

## C[C@H](CCC(=O)OCCOCCOCCN=[N+]=[N-])C1CC[C@H]2[C@@H]3CC[C@@H]4C[C@H](OC(=O)[C@H](CC(=O)O)Nc5ccc([N+](=O)[O-])c6nonc56)CC[C@]4(C)[C@H]3CC[C@]12C (stereo partly drawn) [Compound 3, (3S)-4-(((3R,5R,8R,9S,10S,13R,14S)-17-((R)-5-(2-(2-(2-azidoethoxy)ethoxy)ethoxy)-5-oxopentan-2-yl)-10,13-dimethylhexadecahydro-1H-cyclopenta[a]phenanthren-3-yl)oxy)-3-((7-nitrobenzo[c][1,2,5]oxadiazol-4-yl)amino)-4-oxobutanoic acid]
Measured at 500 μM, 500 µM
  ST3GALI inhibition percentage: none of the compounds 1-5 displayed inhibitory activity
Measured at 1 mM
  ST3GALI inhibition percentage: modest inhibitory activity

## C[C@H](CCC(=O)OCCOCCOCCOCCN=[N+]=[N-])C1CC[C@H]2[C@@H]3CC[C@@H]4C[C@H](OC(=O)[C@H](CC(=O)O)Nc5ccc([N+](=O)[O-])c6nonc56)CC[C@]4(C)[C@H]3CC[C@]12C (stereo partly drawn) [Compound 4, (3S)-4-(((3R,5R,8R,9S,10S,13R,14S)-17-((R)-1-azido-13-oxo-3,6,9,12-tetraoxaheptadecan-6-yl)-10,13-dimethylhexadecahydro-1H-cyclopenta[a]phenanthren-3-yl)oxy)-3-((7-nitrobenzo[c][1,2,5]oxadiazol-4-yl)amino)-4-oxobutanoic acid]
Measured at 500 μM, 500 µM
  ST3GALI inhibition percentage: none of the compounds 1-5 displayed inhibitory activity
Measured at 1 mM
  ST3GALI inhibition percentage: modest inhibitory activity

## C[C@H](CCC(=O)OCCOCCOCCOCCOCCN=[N+]=[N-])C1CC[C@H]2[C@@H]3CC[C@@H]4C[C@H](OC(=O)[C@H](CC(=O)O)Nc5ccc([N+](=O)[O-])c6nonc56)CC[C@]4(C)[C@H]3CC[C@]12C (stereo partly drawn) [Compound 5, (3S)-4-(((3R,5R,8R,9S,10S,13R,14S)-17-((R)-1-azido-16-oxo-3,6,9,12,15-pentaoxaicosan-19-yl)-10,13-dimethylhexadecahydro-1H-cyclopenta[a]phenanthren-3-yl)oxy)-3-((7-nitrobenzo[c][1,2,5]oxadiazol-4-yl)amino)-4-oxobutanoic acid]
Measured at 500 μM, 500 µM
  ST3GALI inhibition percentage: none of the compounds 1-5 displayed inhibitory activity
Measured at 1 mM
  ST3GALI inhibition percentage: modest inhibitory activity

From patent US10889611B2, “Sialyltransferase inhibitors and uses thereof” (Academia Sinica, priority 2015, dated 2021)
